Experimental data: patent publication US20040121326A1 (YEDA RESEARCH AND DEVELOPMENT, published 2004)
These are yes or no findings as the source states them, for the method shown. Some entries that bind do so weakly or less than the wild type. For some of these results: Where a sequence is shown, tags or fusion partners need not be part of it.

Legend:
[1] = biological target: T1, ErbB-1 expressed on transfected cells (32D derivative D1; CHO cells co-transfected with ErbB-4) (UniProt P00533 25-1210, limits assumed); test: co-transfected CHO cells, 125I-NRG-4 crosslinking (BS3), precipitation of labeled monomeric and dimeric receptor species with an anti-ErbB-1 antibody
T1 construct: whole, on cells; also called Epidermal Growth Factor Receptor

[2] = biological target: T2, ErbB-4 expressed on transfected cells (CHO cells; 32D derivatives D4 and D24) (UniProt Q15303 26-1308, limits assumed); test: summary of the crosslinking and displacement assays
T2 construct: whole, on cells; also called surface-expressed ErbB-4

[3] = biological target: T2, ErbB-4 expressed on transfected cells …; test: displacement of radiolabeled NRG-1β from CHO cells expressing ErbB-4
[4] = biological target: T2, ErbB-4 expressed on transfected cells …; test: in vitro studies with engineered cell lines expressing all four ErbB proteins (FIGS. 3 to 5)
[5] = biological target: T3, IgB-4, recombinant soluble extracellular domain of ErbB-4 fused to the Fc portion of human immunoglobulin G (human) (UniProt Q15303); test: covalent crosslinking of 125I-NRG-4 to IgB-4 with a 100-fold molar excess of unlabeled NRG-4
T3 sequence (looked up): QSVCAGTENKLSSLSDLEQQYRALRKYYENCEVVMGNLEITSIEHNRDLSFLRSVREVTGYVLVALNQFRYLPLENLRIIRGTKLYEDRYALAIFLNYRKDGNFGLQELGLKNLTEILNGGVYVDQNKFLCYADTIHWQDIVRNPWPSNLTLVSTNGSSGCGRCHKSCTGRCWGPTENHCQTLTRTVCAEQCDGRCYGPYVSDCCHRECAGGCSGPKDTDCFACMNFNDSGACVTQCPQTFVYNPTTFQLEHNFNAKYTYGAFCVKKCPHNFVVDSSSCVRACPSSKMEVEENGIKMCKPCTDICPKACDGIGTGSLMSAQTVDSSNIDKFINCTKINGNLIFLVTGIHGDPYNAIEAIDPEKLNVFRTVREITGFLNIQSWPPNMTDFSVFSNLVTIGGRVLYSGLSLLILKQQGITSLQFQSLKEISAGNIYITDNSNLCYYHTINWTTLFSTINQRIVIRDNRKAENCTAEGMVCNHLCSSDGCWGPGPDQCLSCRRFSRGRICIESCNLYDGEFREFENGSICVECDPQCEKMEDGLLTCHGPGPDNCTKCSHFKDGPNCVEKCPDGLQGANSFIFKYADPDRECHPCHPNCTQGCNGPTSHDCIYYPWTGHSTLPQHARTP

[6] = biological target: T3, IgB-4, recombinant soluble extracellular domain of ErbB-4 fused to the Fc portion of human immunoglobulin G (human); test: 125I-ligand incubated with soluble IgB, BS3 covalent crosslinking, protein-A precipitation, autoradiography
[7] = biological target: T2, ErbB-4 expressed on transfected cells …; test: 125I-ligand (100 ng/ml) on transfected CHO cells, BS3 crosslinking, immunoprecipitation of ErbB proteins, autoradiography; signal weaker than with NRG-1

Measured: binding

ErbB-4 expressed on transfected cells (CHO cells; 32D derivatives D4 and D24) (from UniProt Q15303 26-1308) (receptor)
binds: [1]

DHEQPCGPRHRSFCLNGGICYVIPTIPSPFCRCIENYTGARCEEVFL (ligand) [synthetic refolded mouse EGF-like domain of NRG-4 (residues 4 to 50, SEQ ID NO:2)]
not listed: [1]
binds: all other assays above
